From article PMC6940354, “Comparative Assessment of the New PDE7 Inhibitor – GRMS-55 and Lisofylline in Animal Models of Immune-Related Disorders: A PK/PD Modeling Approach” (Pharmaceutical Research, 2020)

Test system: collagen-induced arthritis (CIA) in female Lewis rats
Test: Collagen-induced arthritis in rats, paw swelling, PK/PD/DIS progression model
Format: in vivo, rat
Settings: once daily from day 20: GRMS-55 50 mg kg^−1 IP, rolipram 10 mg kg^−1 IP, (±)-LSF 80 mg kg^−1 SC
Procedure: The emulsion of collagen was prepared according to the Protocol for the Successful Induction of Collagen-Induced Arthritis (CIA) in Rats (Chondrex Inc., 2015). Porcine type II collagen dissolved in 0.05 M acetic acid was emulsified with incomplete Freund’s adiuvant (Sigma Aldrich, Germany) using an Omni TH Homogenizer (Omni International, Inc., USA) consisting of a blade with 5 mm diameter. The collagen solution was previously mixed with IFA at a low speed for 1 min and then at the highest speed for 2 min. Then emulsion was being cooled for 5 min in an ice water bath. The emulsification process was repeated 3 times to obtain a stiff emulsion. The emulsion was then transferred into a Hamilton glass syringe, kept at 4°C, and used within 2 h.
At a day 0 of the experiment animals were subcutaneously (SC) injected at the base of the tail with 200 μL of the emulsion using a 27 gauge × 5/8″ needle and Hamilton syringe. At day 7 after the initial immunization, a booster injection with 100 μL of emulsion was performed. Ninety % of rats developed symptoms of disease (paw swelling >150% of day 0) at day 20 of the experiment. At this day, diseased animals were randomly divided into five groups (n = 6). […]
Paw edema of arthritic rats was assessed as swelling of the rat hind paws. […] Each hind leg was measured at two sections, i.e., paw and ankle, and each section was measured at two places (side-to-side and top-to-bottom). The area of each section (elliptical in shape) was calculated from the following equation:2 Area=π·a·b/4 where (a) is side-to-side diameter of the ellipse and (b) is top-to-bottom diameter of the ellipse. […] Each of these measures was normalized to the same hind paw area measured at day 0 of the experiment (Areazero) to reduce variation in the disease progression resulting from differences in paw size of each rat. Relative paw swelling (Paw) was calculated according to the equation:3 Paw=Areaoverall/Areazero
Paw size was measured at days 0, 5, 7, 11, 15, 18, 20, 22, 26, 30, 33, and 36 after the first immunization. […]

| SMILES | τ, mean transit time, Final estimate (CV%) |
| --- | --- |
| CC(O)CCCCn1c(=O)c2c(ncn2C)n(C)c1=O (racemic) [(±)-LSF, lisofylline] | 0.371 (19.7) day |
| Cn1c(=O)c2c(nc(NCCc3ccccc3)n2CCCC(=O)NN=Cc2ccccc2O)n(C)c1=O [GRMS-55, 4-(1,3-Dimethyl-2,6-dioxo-8-(phenethylamino)-2,3,6,7-tetrahydro-1H-purin-7-yl)-N′-(2-hydroxybenzylidene)butanehydrazide] | 0.257 (16.8) day |
| COc1ccc(C2CNC(=O)C2)cc1OC1CCCC1 (stereo not drawn) [Rolipram, rolipram] | 0.257 (16.8) day |
